Drawing on PubChem BioAssay AID2685 (National Center for Advancing Translational Sciences (NCATS), 2010), this text covers cell number change and AC50 for 60 molecules.

This assay in a line: qHTS Assay for Lipid Storage Modulators in Drosophila S3 Cells.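 On cell number change: cells counted by Cell Tracker Red CMTPX staining in the red channel.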 Particulars: BODIPY lipid droplet fluorescence, 18-24 h; for cell number change: measured here: cell count max response, cells fed with added oleic acid. Summed up:
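Drosophila S3 cells got compounds at several concentrations plus oleic acid (400 uM solution). Laser-scanning cytometry with 488 nm excitation read lipid droplets at 500-530 nm and cells at 575-640 nm. Percent activity was relative to 20 uM Triacsin C.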

The mark [1] stands for this setting: measured here: lipid fluorescence (Fed channel) AC50, cells fed with added oleic acid.
[2] abbreviates: measured here: cell number channel AC50, cells fed with added oleic acid.

The list shows a part of the results. Shown are side measurements of this screen, not its main read-out; they come without a call. Most of these compounds were active or inconclusive in the main read-out, so they are no random draw. The note in brackets gives the kind of curve behind each potency; many fits are weak.

Take `CCn1c(COc2ccccc2C)nnc1SCC(=O)CC(=O)Nc1ccccc1OC`: the cell number change was 9.72%. For the same molecule, the AC50 under setting [1] is 2.59 µM [rising, full curve].

`CCC(C)Cn1c(C)nc2ccccc21` (centres undefined): the cell number change is -9.66%. The concentration at half-maximal activity (AC50) under setting [1] is 1.16 µM [rising, single point].

For `Cc1ccc(NC(=O)CSc2ccc3c(c2)OCCO3)c(O)c1`, the cell number change came to 31.6%. In addition, under setting [2], the AC50 was 18.4 µM [rising, partial curve, poor fit].

For `CC(C)CC(C(=O)N1CCOCC1)N1Cc2ccccc2C1=O` (centres undefined), the cell number change is -12.5%.

Regarding `COc1cccc(NC(=O)C2CCCN(S(=O)(=O)c3ccc(-n4cnnn4)cc3)C2)c1` (centres undefined), the cell number change was found to be 14.5%.

`O=C(Nc1ccc2c(c1)OCO2)C1CCCN1C(=O)OCc1ccccc1` (centres undefined): the cell number change was -16.8%. Besides, the half-maximal activity concentration (AC50) under setting [1] is 5.8 µM [rising, full curve, poor fit].

For the molecule `Cc1ccc(Cn2c(SCC(=O)N(C)C3CCS(=O)(=O)C3)nc3ccccc3c2=O)cc1` (centres undefined), the cell number change is -75%. Besides, under setting [2], the AC50 was 1.64 µM [falling, partial curve].

Regarding `Cc1ccc(S(=O)(=O)N2CCCC2CNC(=O)C(=O)NCc2cccs2)cc1` (centres undefined), the cell number change was -25%. For the same molecule, the AC50 under setting [2] was 4.11 µM [falling, single point].

For the molecule `O=C(CSc1nc(O)c(Cc2ccccc2)c(=O)[nH]1)Nc1nnc(SCc2ccccc2)s1`, the cell number change is -14.6%.

As to `CC1CCC2(CC1)NC(=O)N(CC(=O)Nc1cccc(S(=O)(=O)N3CCOCC3)c1)C2=O` (centres undefined), the cell number change was -45%. Also, the AC50 under setting [2] is 14.6 µM [falling, single point]. For the same molecule, the concentration at half-maximal activity (AC50) under setting [1] is 18.4 µM [falling, single point].

`O=C(CCCCCNc1nc(=S)[nH]c2ccccc12)NCCc1ccc(Cl)cc1`: the cell number change was 22.2%.

As for `Cc1cc(Nc2ccc(F)c(Cl)c2)n2nc(C)nc2n1`, the cell number change was determined as 18.9%. In addition, the half-maximal activity concentration (AC50) under setting [1] is 9.2 µM [rising, partial curve, poor fit].

In the case of `Cc1cc(C)c(C(N)=O)c(SCC(=O)c2ccc(Cl)cc2)n1`, under setting [1], the half-maximal activity concentration (AC50) is 29.1 µM [rising, single point].

With `O=C(CSc1nnc(COc2ccc(Cl)cc2)o1)N1c2ccccc2CCc2ccccc21`, the cell number change was -30.2%. In addition, the half-maximal activity concentration (AC50) under setting [2] was 29.1 µM [falling, single point]. The concentration at half-maximal activity (AC50) under setting [1] is 29.1 µM [falling, single point].

As to `CCCCCc1c(C)nc(N2CCOCC2)[nH]c1=O`, the cell number change is -24.4%. In addition, the AC50 under setting [2] was 0.411 µM [falling, full curve, poor fit]. In addition, the AC50 under setting [1] is 0.731 µM [falling, full curve, poor fit].

Consider `CC(=O)c1sc2c(c1N)c(=O)[nH]c(=O)n2-c1ccccc1`, for which the cell number change was determined as 1.41%. For the same molecule, the AC50 under setting [2] is 6.51 µM [rising, single point].

As to `O=C(Cc1ccccc1)NNC(=O)Nc1cccc(Cl)c1`, the cell number change worked out at 21.4%.

For the molecule `O=C(C1CCN(S(=O)(=O)c2ccccc2)CC1)N1CCN(c2ccccc2F)CC1`, the cell number change is -14%. The AC50 under setting [1] was 0.651 µM [rising, full curve, poor fit].

Take `Cc1nc(N)c(Br)c(C)c1Br`: the cell number change was -11.1%. Moreover, the AC50 under setting [1] was 0.00461 µM [falling, full curve, poor fit].

With `Cn1c(CC(=O)NNC(=O)c2ccccc2F)nc2ccccc21`, the cell number change was determined as 21.6%. Further, the AC50 under setting [2] is 2.06 µM [falling, partial curve]. The AC50 under setting [1] was 1.84 µM [falling, partial curve].

Regarding `C/C(N)=C(/C#N)C(=O)CSc1nnc(Nc2c(C)cccc2C)s1`, the cell number change was -5.96%. For the same molecule, the AC50 under setting [1] is 0.0651 µM [rising, partial curve, poor fit].

In the case of `CCN(CC(=O)Nc1ccc(OC)cc1)CC(=O)N1CC(=O)Nc2ccccc21`, the cell number change worked out at 2.69%. The AC50 under setting [1] is 1.46 µM [falling, partial curve].

On to `O=C(c1ccc(N2CCN(S(=O)(=O)c3ccccc3)CC2)c([N+](=O)[O-])c1)N1CCOCC1`, for which the cell number change turned out to be 8.8%. In addition, the half-maximal activity concentration (AC50) under setting [1] is 29.1 µM [rising, single point].

With `S=C(NCCCc1ccccc1)Nc1ccccc1`, the cell number change was -17.1%. The concentration at half-maximal activity (AC50) under setting [1] was 0.58 µM [rising, single point].

As for `CCOC(=O)c1nn(-c2ccc(C)c(Cl)c2)c(=O)c(C#N)c1C`, the cell number change was found to be 1.01%. Moreover, the AC50 under setting [1] was 0.184 µM [rising, partial curve, poor fit].

Turning to `O=C(O)C(=O)/C(=C\c1cccc(Cl)c1)c1ccc2ccccc2n1`, the cell number change stood at 38.4%.

For `CCN1C(=O)N[C@@H](CCc2ccccc2)[C@@H](C(=O)OC)[C@H]1C`, the cell number change is -30.9%. Further, the half-maximal activity concentration (AC50) under setting [2] was 16.4 µM [falling, single point]. Also, under setting [1], the half-maximal activity concentration (AC50) is 20.6 µM [falling, single point].

As for `CCOC(=O)/C(C#N)=C/c1cc2ccccc2nc1N1CCCCC1`, the cell number change is -21.5%. Also, under setting [1], the AC50 was 2.06 µM [falling, partial curve, poor fit].

As to `NC(=O)C1(N2CCCCC2)CCN(Cc2ccccc2Cl)CC1`, the cell number change was found to be 10.6%. The concentration at half-maximal activity (AC50) under setting [1] was 0.00461 µM [falling, full curve, poor fit].

On to `CC1CCCCC12NC(=O)N(CC(=O)Nc1cccc(S(=O)(=O)N3CCCCC3)c1)C2=O` (centres undefined), for which the cell number change amounted to 1.94%. The concentration at half-maximal activity (AC50) under setting [1] is 0.731 µM [rising, single point].

For the molecule `COc1ccc(OC)c(S(=O)(=O)N2CCC(C(=O)NCc3ccc4c(c3)OCO4)CC2)c1`, the AC50 under setting [1] is 6.51 µM [rising, single point].

`O=C(Nc1cccc(C(F)(F)F)c1)/C(=C/c1ccco1)NC(=O)c1cccs1`: the cell number change was -5.2%.

`CCN(CC)CCn1c(NCc2cccc(OC)c2)nc2ccccc21`: the cell number change is -8.64%. The AC50 under setting [1] was 3.66 µM [falling, partial curve].

In the case of `Cc1cccc(NC(=O)c2ccc3nccnc3c2)n1`, the cell number change was -18.5%. Also, the half-maximal activity concentration (AC50) under setting [1] was 1.64 µM [falling, partial curve].

Regarding `CCCC(c1nnnn1CCOC)N(Cc1cc2cc(C)c(C)cc2[nH]c1=O)CC1CCCO1` (centres undefined), the cell number change was 2.58%. Also, the AC50 under setting [1] was 0.00411 µM [rising, full curve, poor fit].

On to `O=C(CC(C(=O)O)c1ccc(Cl)cc1)c1ccccc1` (centres undefined), for which the cell number change is -54.5%. For the same molecule, the AC50 under setting [2] was 5.17 µM [falling, full curve]. Further, the concentration at half-maximal activity (AC50) under setting [1] is 23.1 µM [falling, single point].

As to `O=[N+]([O-])c1ccc(NC(=S)N2CCc3ccccc3C2)cc1`, the cell number change is -16.5%. Under setting [2], the AC50 was 1.46 µM [rising, full curve, poor fit].

In the case of `COc1ccc(N2CCN(S(=O)(=O)c3cn(C)cn3)CC2)cc1`, the cell number change is 22%. The concentration at half-maximal activity (AC50) under setting [1] is 3.26 µM [rising, partial curve].

Take `CSCCC(NC(=O)c1ccccc1Cl)C(=O)N1CCC1` (centres undefined): the cell number change was found to be 2%.

Take `CCOC(=O)N1CCN(c2nc(SC)nc3sc4c(c23)CC(C)(C)OC4)CC1`: the cell number change was 28.8%. Besides, the half-maximal activity concentration (AC50) under setting [1] was 4.61 µM [rising, single point].

Regarding `Cc1ccc(-c2nnc(Nc3ccccc3)c3ccccc23)cc1S(=O)(=O)NCC1CCCO1` (centres undefined), the cell number change was -38.1%. Under setting [2], the AC50 is 14.6 µM [falling, partial curve, poor fit].

Consider `COc1cccc(NC(=O)CN(C)C(=O)c2cccnc2Sc2ccc(C)c(C)c2)c1`, for which the cell number change amounted to 10.4%. The AC50 under setting [1] is 2.06 µM [falling, partial curve].

`CN1C(=O)C(N=Nc2ccccc2C(=O)O)N(C)C1=S` (centres undefined): the cell number change worked out at 15.6%. The half-maximal activity concentration (AC50) under setting [1] is 4.11 µM [falling, single point].

For `Cn1c(-c2cccc3ccccc23)n[nH]c1=S`, the cell number change amounted to 17.7%. Under setting [1], the AC50 is 6.51 µM [falling, single point].

Take `COc1cc(/C=C/C(=O)OCC(=O)NC(=O)NC(C)C)ccc1OCC#N`: the cell number change is 22.8%. Further, the half-maximal activity concentration (AC50) under setting [1] is 18.4 µM [rising, single point].

For `Cc1cc(C)cc(NC(=O)CSc2nc3[nH]ncc3c(=O)[nH]2)c1`, the cell number change was 10.7%.

As to `COc1ccc(NCC(=O)Nc2ccc(Cl)cc2C)c(OC)c1`, the cell number change came to 48.7%. Moreover, the AC50 under setting [2] is 1.64 µM [rising, full curve, poor fit]. Further, the AC50 under setting [1] is 2.06 µM [rising, full curve].

Regarding `CCOc1ccc2nc(N3CCOCC3)nc(C)c2c1`, the cell number change came out at 89%. In addition, the AC50 under setting [2] is 7.31 µM [rising, partial curve]. Moreover, the AC50 under setting [1] was 9.2 µM [rising, partial curve].

In the case of `Cc1ccc(N(C(=O)c2csnn2)C(C(=O)NC2CCCC2)c2ccccn2)c(C)c1` (centres undefined), the cell number change was 6.67%. Further, the AC50 under setting [1] was 4.61 µM [rising, single point].

In the case of `CCCN(Cc1cc2cc(C)ccc2[nH]c1=O)C(=O)c1cccc(OC)c1`, under setting [1], the AC50 is 29.1 µM [falling, single point].

As to `CCCCN(C(=O)CSc1nnnn1C)C1CCS(=O)(=O)C1` (centres undefined), the cell number change was -6.46%. For the same molecule, the concentration at half-maximal activity (AC50) under setting [2] was 2.91 µM [falling, single point].

In the case of `C/C(=N\NS(=O)(=O)c1ccc(C)cc1)c1ccc(Br)s1`, the cell number change is -26.5%. Under setting [1], the AC50 is 14.6 µM [falling, partial curve].

In the case of `O=C(OCc1cnc(Cl)s1)c1c(F)cccc1F`, the cell number change was 29%. Moreover, under setting [1], the AC50 was 2.59 µM [rising, partial curve].

As to `COc1ccc(NS(=O)(=O)c2ccc(S(=O)(=O)N(C)C)cc2)cc1S(N)(=O)=O`, the half-maximal activity concentration (AC50) under setting [1] is 0.116 µM [rising, full curve, poor fit].

On to `COc1cc(/C=N/O)ccc1OCc1ccc([N+](=O)[O-])cc1`, for which the AC50 under setting [1] was 6.51 µM [falling, single point].

For `CCCC(=O)Nc1ccc(C(=O)N/N=C/c2ccc([N+](=O)[O-])o2)cc1`, the concentration at half-maximal activity (AC50) under setting [1] is 7.31 µM [falling, full curve, poor fit].

For the molecule `COc1ccccc1CN1CC(C(=O)NCCC2=CCCCC2)CCC1=O` (centres undefined), the AC50 under setting [1] was 29.1 µM [falling, single point].

`Cn1cccc1-c1cc(C(=O)O)[nH]n1`: the cell number change is -31.5%. The AC50 under setting [2] is 18.4 µM [falling, single point]. Moreover, under setting [1], the concentration at half-maximal activity (AC50) is 1.3 µM [falling, full curve].

In the case of `CCOc1ccccc1-n1cnc(C#N)c1N`, the cell number change was -16.6%. For the same molecule, the concentration at half-maximal activity (AC50) under setting [1] is 0.794 µM [falling, full curve, poor fit].

For `CC(C)N(Cc1ccccc1)C(=O)COC(=O)c1ccccc1SCC(=O)N1CCCC1`, the cell number change is -0.623%. For the same molecule, the AC50 under setting [2] was 3.26 µM [falling, single point]. Also, the half-maximal activity concentration (AC50) under setting [1] was 0.0231 µM [falling, full curve, poor fit].
